This passage reports AC50 results from PubChem BioAssay AID901 (National Center for Advancing Translational Sciences (NCATS), 2007).

The other results are listed elsewhere or left out. These are further read-outs of the screen, such as a control signal, another cell line or another target. No call is given for them. Compounds called inactive in the main read-out are mostly missing here. Words in brackets tell the shape of the fitted curve; partial curves, single points and poor fits give uncertain potencies.

This assay in a line: qHTS Assay for Identifying the Cell-Membrane Permeable IMPase Inhibitors. The conditions noted are these: CHO-M1 cells, IP1 accumulation, HTRF TR-FRET ratio; measured here: donor channel 620 nm AC50. For orientation: Quantitative high-throughput screening tests each substance at several concentrations.
Turning to `CCCSc1nc(C)c(-c2csc(C(C#N)=C3CCCC3)n2)cc1C#N`, the AC50 – broadly, the concentration giving half of the maximal activity seen – was 20 µM [rising, partial curve, poor fit].

For the compound `CC(SC1CCCC1)C(=O)NC(C)(C#N)C(C)C` (centres undefined), the AC50 was 0.0251 µM [rising, full curve, poor fit].

On to `COc1ccc(C(=O)Nc2nc3ccc(S(C)(=O)=O)cc3s2)cc1`, for which the AC50 was 17.8 µM [rising, single point].

Turning to `CCNc1nc(N)nc(Oc2ccc(OCCOc3ccccc3)nn2)n1`, the AC50 was 6.31 µM [falling, single point].

Consider `CCOC(=O)C(C)Sc1nc(-c2cccs2)ccc1C#N` (centres undefined), for which the concentration at half-maximal activity (AC50) is 0.631 µM [falling, partial curve].

As to `Brc1cc(Br)c2nc(-c3cccs3)ccc2c1`, the AC50 is 12.6 µM [rising, partial curve, poor fit].

Consider `NC(=O)CC1Nc2cccc3cccc(c23)NC1=O` (centres undefined), for which the concentration at half-maximal activity (AC50) was 10 µM [falling, partial curve].

As for `CC(=O)N1CCc2cc(Br)cc(S(=O)(=O)NCCCN3CCC(C)CC3)c21`, the AC50 was 31.6 µM [rising, single point].

Regarding `Cc1ccc(SCCCn2cncn2)cc1`, the half-maximal activity concentration (AC50) was 2.51 µM [rising, full curve, poor fit].

For `CC1(C)Cc2cccc(OCC(N)=O)c2O1`, the AC50 was 31.6 µM [falling, single point].

On to `CC1CCN(C(=O)c2ccc3c(c2NCCO)C(=O)c2ccccc2C3=O)CC1`, for which the concentration at half-maximal activity (AC50) is 1.58 µM [falling, partial curve].

For the compound `O=c1c2ccccc2oc2cc(O)c(C3COCC(CO)C(O)C(O)C3O)c(O)c12` (centres undefined), the AC50 is 12.6 µM [falling, partial curve].

For the compound `CCCC(=O)c1ccc(N2CCN(C(=O)c3ccccc3Br)CC2)c(F)c1`, the concentration at half-maximal activity (AC50) is 31.6 µM [falling, single point].

Take `CCN(CC)c1ccc(C=N/C(C#N)=C(\N)C#N)cc1`: the half-maximal activity concentration (AC50) was 20 µM [falling, single point].

Consider `O=C(O)CCCC(=O)Nc1ccc(N2CCCC2)cc1`, for which the half-maximal activity concentration (AC50) was 1.58 µM [falling, partial curve].

With `Cc1cccc[n+]1C1C(c2ccccc2)C(C#N)=C(C(=C=[N-])C#N)NC1(O)C1CC1` (centres undefined), the AC50 is 12.6 µM [rising, single point].

Consider `O=C(CCC1CCCCC1=O)c1ccccc1` (centres undefined), for which the AC50 was 0.0398 µM [rising, full curve, poor fit].

On to `CCOC(=O)c1sc2ncn(CC(=O)N(CC)CC)c(=O)c2c1C`, for which the concentration at half-maximal activity (AC50) was 5.01 µM [falling, single point].

`CCOC(=O)c1cnc(-c2ccccc2)[nH]c1=O`: the AC50 was 0.0631 µM [rising, partial curve, poor fit].
